Experimental data as given in patent publication US20260062442A1, “COMPOSITIONS AND METHODS FOR PURIFYING ANTIGEN-BINDING ANTIBODY FRAGMENTS USING PEPTIDE LIGANDS” (North Carolina State University, priority 2022, published 2026).

What was measured:
[1] = test system: engineered Fabs; test: Purification of engineered Fabs from CHO-K1 cell culture fluids (summary statement); details: range over feedstocks
[2] = test system: human Fab-λ; test: Dynamic binding of human Fab-λ in non-competitive condition on peptide-Toyopearl resins; details: Fab at 1 mg/mL in PBS, 0.1 mL column, residence time 2 min, elution at pH 4
[3] = test system: human polyclonal Fab; test: Purification of human polyclonal Fab from null CHO-S CCCF
[4] = test system: human Fab-κ; test: Dynamic binding of human Fab-κ in non-competitive condition on peptide-Toyopearl resins; details: Fab at 1 mg/mL in PBS, 0.1 mL column, residence time 2 min, elution at pH 4
Description: Dynamic binding of human Fab-κ and Fab-λ in non-competitive condition. The peptides listed in Table 3 were synthesized on Toyopearl resins as described herein, and the resulting adsorbents were packed into 0.1 mL (30×2.1 mm) columns, installed on a Waters Alliance 2695 HPLC system (Milford, MA), and equilibrated with PBS at pH 7.4. […] The subsequent chromatographic steps of washing with PBS, elution with 0.2 M acetate buffer pH 4, regeneration with 0.1 M glycine buffer pH 2.5, and equilibration with PBS were all performed at 348 cm/h. The dynamic binding protocol was repeated with 50 μL of human Fab-κ and Fab-λ, both at 1 mg/mL in PBS. The column effluent was continuously monitored at 280 nm by UV spectrophotometry. The yield was determined by peak area analysis and determined by taking the area of the elution peak divided by the flow-through, elution, and regeneration peak areas. Finally, the dynamic binding capacity at 10% flowthrough of […]-Toyopearl resin was measured via continuous loading of a solution of human polyclonal Fab at either 1, 2, or 5 mg/mL in PBS at the linear velocity of either 173, 87, or 35 cm/h, corresponding to the residence times (RT) of 1, 2, and 5 min, until reaching saturation of the adsorbent. The dynamic binding capacity of Protein L-agarose resin was measured via continuous loading of human polyclonal Fab at 1 mg/mL in PBS at the linear velocity of either 173 or 87 cm/h, corresponding to RT of 1 and 2 min, until reaching saturation of the adsorbent.

[5] = test system: monoclonal Fab-κ; details: from an E. coli lysate; cited from earlier work

Sequence | Fab-λ Yield [2] | Fab-κ Yield [4] | also measured
FRWNFHRNTFFP | 91% | 89% | purity [1]: 89-96%; yield [1]: 93-96%; reduction of HCPs [3]: 93 fold; reduction of host cell DNA [3]: 135 fold; HCP LRV ([3]; anti-CHO HCP ELISA): ~1.97; DNA LRV ([3]; host cell DNA): ~2.13; yield ([3]; human Fab 1 mg/mL, HCP 0.135 mg/mL, anti-human Fab ELISA): 94.1%
RWTIWPPNWHPP | 53% | 40% | 
NNWWRHARIINA | 60% | 19% | 
WIPNSEFEHERTK [B1, peptide ligand for monoclonal Fab-κ identified by Nascimento et al] |  |  | purity of Fab-κ A [5]: above 90%; yield of Fab-κ A [5]: 84%
IIHRRAFWWFPN | 66% | 55% | 
IRHHNIWFNTIA | 42% | 42% | 
